Laboratory results: PMC10602587
No constants are given. Whether binding was seen depends on the method and setting.

How the values were obtained:
[1] = target: DCLK1.1 351-729 (full C-tail) (human) (UniProt O15075); test: SEC; analytical SEC on Superdex 200 Increase 10/300 GL, 1 mg of each DCLK1 protein (legends: 1.1 mg), compared with molecular weight standards (bovine serum albumin, carbonic anhydrase, alcohol dehydrogenase); both purified
[2] = target: DCLK1.2 351-740 (full C-tail) (human) (UniProt O15075); test: as above

B1: DCLK1.1 351-729 (full C-tail) (domain or fragment, UniProt O15075-2 351-729)
chain: GSSTSLASTKVCSSMDENDGPGEEVSEEGFQIPATITERYKVGRTIGDGNFAVVKECVERSTAREYALKIIKKSKCRGKEHMIQNEVSILRRVKHPNIVLLIEEMDVPTELYLVMELVKGGDLFDAITSTNKYTERDASGMLYNLASAIKYLHSLNIVHRDIKPENLLVYEHQDGSKSLKLGDFGLATIVDGPLYTVCGTPTYVAPEIIAETGYGLKVDIWAAGVITYILLCGFPPFRGSGDDQEVLFDQILMGQVDFPSPYWDNVSDSAKELITMMLLVDVDQRFSAVQVLEHPWVNDDGLPENEHQLSVAGKIKKHFNTGPKPNSTAAGVSVIALDHGFTIKRSGSLDYYQQPGMYWIRPPLLIRRGRFSDEDATRM
- binding [1]: no binding (tested: 1 mg loaded (legend: 1.1 mg))

B2: DCLK1.2 351-740 (full C-tail) (domain or fragment, UniProt O15075-1 351-740)
chain: GSSTSLASTKVCSSMDENDGPGEEVSEEGFQIPATITERYKVGRTIGDGNFAVVKECVERSTAREYALKIIKKSKCRGKEHMIQNEVSILRRVKHPNIVLLIEEMDVPTELYLVMELVKGGDLFDAITSTNKYTERDASGMLYNLASAIKYLHSLNIVHRDIKPENLLVYEHQDGSKSLKLGDFGLATIVDGPLYTVCGTPTYVAPEIIAETGYGLKVDIWAAGVITYILLCGFPPFRGSGDDQEVLFDQILMGQVDFPSPYWDNVSDSAKELITMMLLVDVDQRFSAVQVLEHPWVNDDGLPENEHQLSVAGKIKKHFNTGPKPNSTAAGVSVIATTALDKERQVFRRRRNQDVRSRYKAQPAPPELNSESEDYSPSSSETVRSPNSPF
- binding [2]: no binding (tested: 1 mg loaded (legend: 1.1 mg))
